Results deposited as PubChem BioAssay AID1224828 (NIAID, 2016).

- Assay: 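Find genes required for NF-kappaB p65 moving into the nucleus after LPS in mouse macrophages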 (primary screen)
- Cells: mouse RAW264.7 G9 macrophage reporter cells (GFP-p65, Tnf promoter-mCherry)
- Reagents: siRNA pool against mouse genes, 100 nM
- Timing: 2 days siRNA transfection, then 40 min LPS before fixation
- Treatment: LPS (Salmonella minnesota R595) at 10 ng/ml
- Measured: 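Microscopy ratio of nuclear to perinuclear-ring GFP-p65 signal, scaled to the plate median; gene score is the average of two replicate robust z-scores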
- Direction: p65 translocation robust z-score: higher = more nuclear NF-kappaB p65 after LPS than the plate median; nuclear/cytoplasmic p65 ratio: higher = more nuclear NF-kappaB p65
- Hit rule: 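Called active when z exceeds 3.3 or falls under -1.56 (median of Tlr4 controls), giving activity score of at least 50; no calls for control wells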
- Meaning of the calls: active = hit (p65 shift raised or lowered); inactive = no clear change
In all, the deposit lists about 17,000 reagents; this is a part drawn at random. Over the whole deposit, 762 (4.5%) are marked active. 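Active calls include both raised and lowered p65 entry, mostly lowered; wells with fewer than 50 cells lack a z-score.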 Raw values are not corrected between plates.

For Cnpy2 (GeneID 56530), what does the deposit list?
p65 translocation robust z-score: 0.4; nuclear/cytoplasmic p65 ratio, rep 1: 1.61; nuclear/cytoplasmic p65 ratio, rep 2: 1.54; low cell count flag: enough cells to score; outcome: inactive

What did the screen give for Efna4 (GeneID 13639)?
p65 translocation robust z-score: 0; nuclear/cytoplasmic p65 ratio, rep 1: 1.48; nuclear/cytoplasmic p65 ratio, rep 2: 1.35; low cell count flag: enough cells to score; outcome: inactive

How did the screen score Rtl5 (GeneID 331474)?
p65 translocation robust z-score: 1.02; nuclear/cytoplasmic p65 ratio, rep 1: 1.41; nuclear/cytoplasmic p65 ratio, rep 2: 1.69; low cell count flag: enough cells to score; outcome: inactive

For Or11g26 (GeneID 258422), how do the results read?
p65 translocation robust z-score: -0.17; nuclear/cytoplasmic p65 ratio, rep 1: 1.42; nuclear/cytoplasmic p65 ratio, rep 2: 1.18; low cell count flag: enough cells to score; outcome: inactive

What is on record for Aqp3 (GeneID 11828)?
p65 translocation robust z-score: -1.11; nuclear/cytoplasmic p65 ratio, rep 1: 1.44; nuclear/cytoplasmic p65 ratio, rep 2: 1.46; low cell count flag: enough cells to score; outcome: inactive

For Sec63 (GeneID 140740), what was measured?
p65 translocation robust z-score: 0.57; nuclear/cytoplasmic p65 ratio, rep 1: 1.57; nuclear/cytoplasmic p65 ratio, rep 2: 1.24; low cell count flag: enough cells to score; outcome: inactive

Which result is listed for Htatip2 (GeneID 53415)?
p65 translocation robust z-score: -0.47; nuclear/cytoplasmic p65 ratio, rep 1: 1.37; nuclear/cytoplasmic p65 ratio, rep 2: 1.31; low cell count flag: enough cells to score; outcome: inactive

Which result is listed for Glra4 (GeneID 14657)?
p65 translocation robust z-score: 1.69; nuclear/cytoplasmic p65 ratio, rep 1: 1.84; nuclear/cytoplasmic p65 ratio, rep 2: 1.7; low cell count flag: enough cells to score; outcome: inactive

How did the screen score Gorab (GeneID 98376)?
p65 translocation robust z-score: 0.39; nuclear/cytoplasmic p65 ratio, rep 1: 1.67; nuclear/cytoplasmic p65 ratio, rep 2: 1.74; low cell count flag: enough cells to score; outcome: inactive

For B3gat3 (GeneID 72727), what was measured?
p65 translocation robust z-score: 0.01; nuclear/cytoplasmic p65 ratio, rep 1: 1.61; nuclear/cytoplasmic p65 ratio, rep 2: 1.51; low cell count flag: enough cells to score; outcome: inactive

What is on record for Fdx1 (GeneID 14148)?
p65 translocation robust z-score: 0.19; nuclear/cytoplasmic p65 ratio, rep 1: 1.44; nuclear/cytoplasmic p65 ratio, rep 2: 1.44; low cell count flag: enough cells to score; outcome: inactive

With Pola1 (GeneID 18968), what does the deposit list?
p65 translocation robust z-score: 0.74; nuclear/cytoplasmic p65 ratio, rep 1: 1.59; nuclear/cytoplasmic p65 ratio, rep 2: 1.51; low cell count flag: enough cells to score; outcome: inactive

For Rpl29 (GeneID 19944), how do the results read?
p65 translocation robust z-score: -1.7; nuclear/cytoplasmic p65 ratio, rep 1: 1.19; nuclear/cytoplasmic p65 ratio, rep 2: 1.07; low cell count flag: enough cells to score; outcome: active

With Or2a51 (GeneID 258647), what does the deposit list?
p65 translocation robust z-score: 1.42; nuclear/cytoplasmic p65 ratio, rep 1: 1.58; nuclear/cytoplasmic p65 ratio, rep 2: 1.48; low cell count flag: enough cells to score; outcome: inactive

What is on record for Glt28d2 (GeneID 320302)?
nuclear/cytoplasmic p65 ratio, rep 1: 1.14; nuclear/cytoplasmic p65 ratio, rep 2: 1.23; low cell count flag: fewer than 50 cells per well; well left out of scoring; outcome: inactive

With Plcb2 (GeneID 18796), what was measured?
p65 translocation robust z-score: 0.9; nuclear/cytoplasmic p65 ratio, rep 1: 1.61; nuclear/cytoplasmic p65 ratio, rep 2: 1.54; low cell count flag: enough cells to score; outcome: inactive

What did the screen give for Prkca (GeneID 18750)?
nuclear/cytoplasmic p65 ratio, rep 1: 1.89; nuclear/cytoplasmic p65 ratio, rep 2: 1.25; low cell count flag: fewer than 50 cells per well; well left out of scoring; outcome: inactive

For Amelx (GeneID 11704), how do the results read?
p65 translocation robust z-score: -0.28; nuclear/cytoplasmic p65 ratio, rep 1: 1.55; nuclear/cytoplasmic p65 ratio, rep 2: 1.6; low cell count flag: enough cells to score; outcome: inactive

What did the screen give for Fxyd1 (GeneID 56188)?
p65 translocation robust z-score: 0.08; nuclear/cytoplasmic p65 ratio, rep 1: 1.44; nuclear/cytoplasmic p65 ratio, rep 2: 1.39; low cell count flag: enough cells to score; outcome: inactive

How did the screen score Depdc1b (GeneID 218581)?
p65 translocation robust z-score: -1.08; nuclear/cytoplasmic p65 ratio, rep 1: 1.37; nuclear/cytoplasmic p65 ratio, rep 2: 1.43; low cell count flag: enough cells to score; outcome: inactive

With Ptpn14 (GeneID 19250), what does the deposit list?
p65 translocation robust z-score: 0.11; nuclear/cytoplasmic p65 ratio, rep 1: 1.26; nuclear/cytoplasmic p65 ratio, rep 2: 1.42; low cell count flag: enough cells to score; outcome: inactive

How did the screen score Taf15 (GeneID 70439)?
p65 translocation robust z-score: 0.43; nuclear/cytoplasmic p65 ratio, rep 1: 1.6; nuclear/cytoplasmic p65 ratio, rep 2: 1.56; low cell count flag: enough cells to score; outcome: inactive

For H2-Q10 (GeneID 15007), how do the results read?
p65 translocation robust z-score: 0.46; nuclear/cytoplasmic p65 ratio, rep 1: 1.39; nuclear/cytoplasmic p65 ratio, rep 2: 1.53; low cell count flag: enough cells to score; outcome: inactive

What did the screen give for Chmp1a (GeneID 234852)?
nuclear/cytoplasmic p65 ratio, rep 1: 1.39; nuclear/cytoplasmic p65 ratio, rep 2: 0; low cell count flag: fewer than 50 cells per well; well left out of scoring; outcome: inactive

What did the screen give for Abcf1 (GeneID 224742)?
p65 translocation robust z-score: -1.84; nuclear/cytoplasmic p65 ratio, rep 1: 1.25; nuclear/cytoplasmic p65 ratio, rep 2: 1.48; low cell count flag: enough cells to score; outcome: active

For A430057M04Rik (GeneID 319486), what does the deposit list?
nuclear/cytoplasmic p65 ratio, rep 1: 1.17; nuclear/cytoplasmic p65 ratio, rep 2: 1.26; low cell count flag: fewer than 50 cells per well; well left out of scoring; outcome: inactive

Which result is listed for Six3 (GeneID 20473)?
p65 translocation robust z-score: 0.18; nuclear/cytoplasmic p65 ratio, rep 1: 1.72; nuclear/cytoplasmic p65 ratio, rep 2: 1.44; low cell count flag: enough cells to score; outcome: inactive
